According to publication PMC11555713:
No constants are given. Whether binding was seen depends on the method and setting. Binding seen in cells or lysates may run through a third protein. Here binding means that the protein was enriched with, or labelled near, the bait; the list need not be complete.

Amino acid sequences for entries named in this document (tags omitted). A change or cut given only in a name is not applied to a line headed by its entry.
UniProt Q9BXL6: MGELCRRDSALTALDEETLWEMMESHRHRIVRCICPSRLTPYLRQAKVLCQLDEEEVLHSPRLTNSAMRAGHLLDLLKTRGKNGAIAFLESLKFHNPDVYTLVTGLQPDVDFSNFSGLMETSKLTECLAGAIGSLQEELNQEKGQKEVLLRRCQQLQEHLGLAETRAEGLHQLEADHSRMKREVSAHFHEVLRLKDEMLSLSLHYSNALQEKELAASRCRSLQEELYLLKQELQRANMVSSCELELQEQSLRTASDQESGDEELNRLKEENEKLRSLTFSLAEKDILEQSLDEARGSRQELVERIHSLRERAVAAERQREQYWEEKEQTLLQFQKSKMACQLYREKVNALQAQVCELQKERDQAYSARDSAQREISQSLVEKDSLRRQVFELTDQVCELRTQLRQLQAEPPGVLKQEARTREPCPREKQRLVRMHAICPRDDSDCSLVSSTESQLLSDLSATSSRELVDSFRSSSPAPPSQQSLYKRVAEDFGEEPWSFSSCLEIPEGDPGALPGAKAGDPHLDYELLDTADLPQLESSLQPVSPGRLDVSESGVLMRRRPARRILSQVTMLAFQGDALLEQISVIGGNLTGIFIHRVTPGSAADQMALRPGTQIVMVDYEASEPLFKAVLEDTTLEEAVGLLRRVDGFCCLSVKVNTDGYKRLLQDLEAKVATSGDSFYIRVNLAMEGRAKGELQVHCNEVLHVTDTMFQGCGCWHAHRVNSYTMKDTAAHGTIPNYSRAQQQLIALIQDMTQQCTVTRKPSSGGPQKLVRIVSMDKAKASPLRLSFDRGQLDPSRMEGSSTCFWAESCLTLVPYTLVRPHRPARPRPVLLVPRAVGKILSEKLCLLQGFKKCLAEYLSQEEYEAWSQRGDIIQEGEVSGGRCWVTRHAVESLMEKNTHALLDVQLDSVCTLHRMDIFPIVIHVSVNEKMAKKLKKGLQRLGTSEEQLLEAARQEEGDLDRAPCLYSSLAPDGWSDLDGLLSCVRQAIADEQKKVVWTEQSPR
UniProt Q14677: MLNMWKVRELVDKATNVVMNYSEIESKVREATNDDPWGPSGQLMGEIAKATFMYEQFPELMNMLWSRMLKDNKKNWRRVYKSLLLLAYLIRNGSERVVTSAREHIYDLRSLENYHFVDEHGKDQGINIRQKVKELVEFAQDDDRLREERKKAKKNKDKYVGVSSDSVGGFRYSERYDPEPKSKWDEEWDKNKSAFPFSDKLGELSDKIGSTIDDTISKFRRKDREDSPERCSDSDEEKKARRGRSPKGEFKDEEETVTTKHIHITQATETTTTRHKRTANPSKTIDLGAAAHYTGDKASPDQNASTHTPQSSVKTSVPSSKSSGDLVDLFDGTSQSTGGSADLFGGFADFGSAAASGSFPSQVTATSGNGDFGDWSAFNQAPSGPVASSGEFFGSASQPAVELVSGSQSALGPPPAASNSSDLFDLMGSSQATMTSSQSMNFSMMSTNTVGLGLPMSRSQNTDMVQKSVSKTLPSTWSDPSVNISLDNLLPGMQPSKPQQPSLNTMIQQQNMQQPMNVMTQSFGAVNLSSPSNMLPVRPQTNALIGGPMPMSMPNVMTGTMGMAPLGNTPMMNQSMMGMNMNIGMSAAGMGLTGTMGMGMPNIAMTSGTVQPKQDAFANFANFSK
UniProt Q96EP0: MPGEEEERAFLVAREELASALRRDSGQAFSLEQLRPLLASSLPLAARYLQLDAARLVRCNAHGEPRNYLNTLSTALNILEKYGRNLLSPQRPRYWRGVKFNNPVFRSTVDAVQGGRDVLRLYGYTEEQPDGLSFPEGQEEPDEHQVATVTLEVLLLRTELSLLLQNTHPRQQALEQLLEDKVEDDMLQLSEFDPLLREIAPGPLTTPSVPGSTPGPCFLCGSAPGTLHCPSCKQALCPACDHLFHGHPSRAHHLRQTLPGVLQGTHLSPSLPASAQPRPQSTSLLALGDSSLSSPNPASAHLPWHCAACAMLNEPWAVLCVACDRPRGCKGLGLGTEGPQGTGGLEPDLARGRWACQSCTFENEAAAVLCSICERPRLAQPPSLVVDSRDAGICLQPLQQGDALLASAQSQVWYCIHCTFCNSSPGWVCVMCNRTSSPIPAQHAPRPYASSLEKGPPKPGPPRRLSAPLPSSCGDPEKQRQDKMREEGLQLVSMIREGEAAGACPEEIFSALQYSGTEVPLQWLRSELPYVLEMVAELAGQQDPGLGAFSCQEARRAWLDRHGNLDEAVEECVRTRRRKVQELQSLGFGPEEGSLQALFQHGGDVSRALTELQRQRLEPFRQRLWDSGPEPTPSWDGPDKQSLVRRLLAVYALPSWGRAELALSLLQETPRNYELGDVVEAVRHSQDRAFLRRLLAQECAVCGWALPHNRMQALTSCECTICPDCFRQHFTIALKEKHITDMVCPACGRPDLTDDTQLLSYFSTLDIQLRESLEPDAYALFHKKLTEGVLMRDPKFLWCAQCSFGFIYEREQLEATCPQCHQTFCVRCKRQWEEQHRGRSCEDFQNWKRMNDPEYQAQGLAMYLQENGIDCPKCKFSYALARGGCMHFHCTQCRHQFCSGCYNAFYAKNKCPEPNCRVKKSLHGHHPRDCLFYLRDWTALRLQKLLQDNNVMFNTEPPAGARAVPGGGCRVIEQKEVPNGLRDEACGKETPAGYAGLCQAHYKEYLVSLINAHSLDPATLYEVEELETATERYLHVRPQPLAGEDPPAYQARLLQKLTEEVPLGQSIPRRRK
UniProt Q9UDY8: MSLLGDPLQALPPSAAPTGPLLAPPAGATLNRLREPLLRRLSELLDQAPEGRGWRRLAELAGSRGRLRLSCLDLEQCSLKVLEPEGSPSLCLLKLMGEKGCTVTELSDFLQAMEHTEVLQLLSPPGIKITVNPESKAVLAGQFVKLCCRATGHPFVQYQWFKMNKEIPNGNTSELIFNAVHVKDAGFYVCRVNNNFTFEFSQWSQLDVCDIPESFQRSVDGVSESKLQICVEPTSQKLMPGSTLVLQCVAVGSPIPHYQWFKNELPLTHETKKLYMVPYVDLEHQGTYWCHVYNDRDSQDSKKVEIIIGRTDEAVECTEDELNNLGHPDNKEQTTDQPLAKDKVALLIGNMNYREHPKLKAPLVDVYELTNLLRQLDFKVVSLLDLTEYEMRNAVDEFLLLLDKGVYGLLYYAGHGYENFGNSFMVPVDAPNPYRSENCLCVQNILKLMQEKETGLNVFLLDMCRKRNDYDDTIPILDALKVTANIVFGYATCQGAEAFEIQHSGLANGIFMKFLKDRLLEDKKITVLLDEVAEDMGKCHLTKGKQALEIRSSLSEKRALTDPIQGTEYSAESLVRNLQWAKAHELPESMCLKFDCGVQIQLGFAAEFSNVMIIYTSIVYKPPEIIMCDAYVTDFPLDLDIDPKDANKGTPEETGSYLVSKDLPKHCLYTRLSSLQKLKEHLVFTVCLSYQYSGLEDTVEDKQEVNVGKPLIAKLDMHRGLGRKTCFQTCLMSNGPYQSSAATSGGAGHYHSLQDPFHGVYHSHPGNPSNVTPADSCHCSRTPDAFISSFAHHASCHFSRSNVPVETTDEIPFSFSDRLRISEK
UniProt Q9Y4K3: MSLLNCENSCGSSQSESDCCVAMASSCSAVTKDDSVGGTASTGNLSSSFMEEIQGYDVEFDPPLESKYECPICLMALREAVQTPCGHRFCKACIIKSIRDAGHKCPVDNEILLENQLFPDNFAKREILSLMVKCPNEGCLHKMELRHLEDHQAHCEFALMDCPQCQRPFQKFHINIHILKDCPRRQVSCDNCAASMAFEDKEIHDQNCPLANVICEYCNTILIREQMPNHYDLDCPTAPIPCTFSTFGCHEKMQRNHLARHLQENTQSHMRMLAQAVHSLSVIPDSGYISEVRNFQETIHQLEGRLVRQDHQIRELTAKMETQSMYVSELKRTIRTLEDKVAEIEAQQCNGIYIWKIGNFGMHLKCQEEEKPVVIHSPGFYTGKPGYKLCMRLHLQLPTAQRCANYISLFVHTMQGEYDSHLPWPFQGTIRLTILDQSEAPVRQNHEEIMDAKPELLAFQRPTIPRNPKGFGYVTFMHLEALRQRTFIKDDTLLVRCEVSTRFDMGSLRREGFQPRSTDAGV
UniProt Q13489: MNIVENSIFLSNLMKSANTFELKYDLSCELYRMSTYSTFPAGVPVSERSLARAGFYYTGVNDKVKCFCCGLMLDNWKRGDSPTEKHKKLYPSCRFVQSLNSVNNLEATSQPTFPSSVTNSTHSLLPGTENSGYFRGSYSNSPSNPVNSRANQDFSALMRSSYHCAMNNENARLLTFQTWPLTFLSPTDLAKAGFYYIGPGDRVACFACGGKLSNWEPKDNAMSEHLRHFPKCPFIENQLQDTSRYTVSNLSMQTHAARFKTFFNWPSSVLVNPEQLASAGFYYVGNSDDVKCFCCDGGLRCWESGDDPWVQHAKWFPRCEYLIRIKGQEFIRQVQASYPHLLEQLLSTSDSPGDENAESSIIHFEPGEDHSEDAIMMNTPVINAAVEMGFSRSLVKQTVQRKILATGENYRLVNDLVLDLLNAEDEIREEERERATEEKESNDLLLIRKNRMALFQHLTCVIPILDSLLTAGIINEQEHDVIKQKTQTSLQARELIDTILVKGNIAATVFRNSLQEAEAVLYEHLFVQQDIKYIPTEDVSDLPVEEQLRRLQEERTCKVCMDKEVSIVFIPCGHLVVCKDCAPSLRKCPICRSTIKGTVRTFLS

B1: BCL10 (B cell lymphoma protein 10) (protein, UniProt O95999 1-233)
chain: MEPTAPSLTEEDLTEVKKDALENLRVYLCEKIIAERHFDHLRAKKILSREDTEEISCRTSSRKRAGKLLDYLQENPKGLDTLVESIRREKTQNFLIQKITDEVLKLRNIKLEHLKGLKCSSCEPFPDGATNNLSRSNSDESNFSEKLRASTVMYHPEGESSTTPFFSTNSSLNLPVLEVGRTENTIFSSTTLPRPGDPGAPPLPPDLQLEEEGTCANSSEMFLPLRSRTVSRQ

molecular target: CARD14^E138A-3xFLAG (human) (UniProt Q9BXL6); assay: affinity purification with mass spectrometry; anti-FLAG immunoprecipitates from SILAC-labelled CARD14^E138A-3xFLAG HaCaT-TR cells (3 h tetracycline) against parental HaCaT-TR control cells, forward and reverse labelling

binding	Molecule
binds	B1

molecular target: CARD14^E138A-3xFLAG (human) (UniProt Q9BXL6); assay: as above; remark: another data set of the same source

binding	Molecule
binds	EpsinR (CLINT1) (from UniProt Q14677 1-625)
binds	HOIP (RNF31) (from UniProt Q96EP0 1-1072)
binds	MALT1 (Mucosa-associated lymphoid tissue lymphoma translocation protein 1) (from UniProt Q9UDY8 1-824)
binds	TRAF6 (from UniProt Q9Y4K3 1-522)
binds	cIAP2 (BIRC3) (from UniProt Q13489 1-604)
